According to patent US5270148A, “Processing solution for silver halide color photographic materials and method for processing the materials with the processing solution” (priority 1991, dated 1993):
Read-outs that look alike come from different tables or passages of the source.

Key:
[1] = Example 2: yellow stain at the minimum density portion; settings: formaldehyde 4.0 mmol, 2 weeks 60° C., 70% RH
[2] = formaldehyde 4.0 mmol
[3] = Example 1: measurement of formaldehyde vapor pressure (HCHO concentration)
[4] = Example 6: vapor pressure of formaldehyde, image stabilizer in conditioning bath
[5] = no formula (I) or (II) additive

SMILES: C1CNCCN1 [II-22]
- Yellow Stain ([1]; formula (II) 2 mmol): 0.08
- Yellow Stain ([1]; formula (II) 4 mmol): 0.16
- Concentration of HCHO ([2]; formula (II) 2 mmol): 0.15 ppm
- Concentration of HCHO ([2]; formula (II) 4 mmol): 0.10 ppm

SMILES: Cc1ccn(CN(CCO)CCO)n1 [Compound A-11]
- HCHO Concentration ([3]; 5 mmol/l): 0.20 ppm
- Concentration of HCHO ([4]; 3 mmol/l in conditioning bath): 0.12 ppm

SMILES: C=O [Formaldehyde, reference compound]
- Yellow Stain [1, 5]: 0.00
- HCHO Concentration ([3]; 5 mmol/l): 0.35 ppm
- HCHO Concentration ([3]; 27 mmol/l): 1.81 ppm
- Concentration of HCHO [2, 5]: 0.5 ppm
- Concentration of HCHO ([4]; 3 mmol/l in conditioning bath): 0.35 ppm
- Concentration of HCHO ([4]; 13 mmol/l in conditioning bath): 0.89 ppm

SMILES: OCN1CCN(Cn2cncn2)CC1 [Compound A-45]
- HCHO Concentration ([3]; 5 mmol/l): 0.18 ppm
- Concentration of HCHO ([4]; 3 mmol/l in conditioning bath): 0.09 ppm

SMILES: C1N2CN3CN1CN(C2)C3 [Hexamethylenetetramine, reference compound]
- HCHO Concentration ([3]; 5 mmol/l): less than 0.03 ppm
- HCHO Concentration ([3]; 27 mmol/l): 0.07 ppm
- Concentration of HCHO ([4]; 3 mmol/l in conditioning bath): less than 0.03 ppm
- Concentration of HCHO ([4]; 13 mmol/l in conditioning bath): 0.07 ppm

SMILES: c1ncn(CN2CCOCC2)n1 [Compound A-26]
- HCHO Concentration ([3]; 5 mmol/l): 0.13 ppm

SMILES: c1cnn(CN2CCOCC2)c1 [Compound A-16]
- HCHO Concentration ([3]; 5 mmol/l): 0.16 ppm

SMILES: c1cnn(CN2CCCCC2)c1 [Compound A-17]
- HCHO Concentration ([3]; 5 mmol/l): 0.18 ppm

SMILES: c1nc[nH]n1 [Compound I-4]
- Yellow Stain ([1]; formula (I) 4 mmol): 0.00
- Yellow Stain ([1]; formula (I) 16 mmol): 0.01
- Concentration of HCHO ([2]; formula (I) 4 mmol): 0.15 ppm
- Concentration of HCHO ([2]; formula (I) 16 mmol): 0.09 ppm

SMILES: C1COCCN1 [II-21]
- Yellow Stain ([1]; formula (II) 4 mmol): 0.09
- Concentration of HCHO ([2]; formula (II) 4 mmol): 0.2 ppm

SMILES: c1cnn(CN2CCN(Cn3cccn3)CC2)c1 [Compound A-22]
- HCHO Concentration ([3]; 5 mmol/l): 0.09 ppm
- Concentration of HCHO ([4]; 3 mmol/l in conditioning bath): 0.07 ppm

SMILES: OCCN1CCN(Cn2cccn2)CC1 [Compound A-32]
- Concentration of HCHO ([4]; 3 mmol/l in conditioning bath): 0.08 ppm

SMILES: c1ncn(CN2CCN(Cn3cncn3)CC2)n1 [Compound A-23]
- HCHO Concentration ([3]; 5 mmol/l): 0.10 ppm
- Concentration of HCHO ([4]; 3 mmol/l in conditioning bath): 0.09 ppm
